Reference: paper PMC4691241, “Activation of ULK Kinase and Autophagy by GABARAP Trafficking from the Centrosome Is Regulated by WAC and GM130” (Molecular Cell, 2015)
Results are given in words; binding and its absence hold for the method and conditions named. Binding seen in cells or lysates may run through a third protein. Some entries that bind do so weakly or less than the wild type. Where a sequence is shown, tags or fusion partners need not be part of it.

T1: HA-GM130 aa774–1,002 (human) (UniProt Q08379)
T1 sequence: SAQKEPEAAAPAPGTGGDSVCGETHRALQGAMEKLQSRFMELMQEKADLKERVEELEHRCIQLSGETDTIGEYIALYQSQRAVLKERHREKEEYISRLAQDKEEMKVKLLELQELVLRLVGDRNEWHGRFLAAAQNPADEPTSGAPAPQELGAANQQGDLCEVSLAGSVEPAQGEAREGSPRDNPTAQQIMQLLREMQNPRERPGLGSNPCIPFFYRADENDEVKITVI

T2: 3xHA-GM130 (human) (UniProt Q08379)
T2 sequence: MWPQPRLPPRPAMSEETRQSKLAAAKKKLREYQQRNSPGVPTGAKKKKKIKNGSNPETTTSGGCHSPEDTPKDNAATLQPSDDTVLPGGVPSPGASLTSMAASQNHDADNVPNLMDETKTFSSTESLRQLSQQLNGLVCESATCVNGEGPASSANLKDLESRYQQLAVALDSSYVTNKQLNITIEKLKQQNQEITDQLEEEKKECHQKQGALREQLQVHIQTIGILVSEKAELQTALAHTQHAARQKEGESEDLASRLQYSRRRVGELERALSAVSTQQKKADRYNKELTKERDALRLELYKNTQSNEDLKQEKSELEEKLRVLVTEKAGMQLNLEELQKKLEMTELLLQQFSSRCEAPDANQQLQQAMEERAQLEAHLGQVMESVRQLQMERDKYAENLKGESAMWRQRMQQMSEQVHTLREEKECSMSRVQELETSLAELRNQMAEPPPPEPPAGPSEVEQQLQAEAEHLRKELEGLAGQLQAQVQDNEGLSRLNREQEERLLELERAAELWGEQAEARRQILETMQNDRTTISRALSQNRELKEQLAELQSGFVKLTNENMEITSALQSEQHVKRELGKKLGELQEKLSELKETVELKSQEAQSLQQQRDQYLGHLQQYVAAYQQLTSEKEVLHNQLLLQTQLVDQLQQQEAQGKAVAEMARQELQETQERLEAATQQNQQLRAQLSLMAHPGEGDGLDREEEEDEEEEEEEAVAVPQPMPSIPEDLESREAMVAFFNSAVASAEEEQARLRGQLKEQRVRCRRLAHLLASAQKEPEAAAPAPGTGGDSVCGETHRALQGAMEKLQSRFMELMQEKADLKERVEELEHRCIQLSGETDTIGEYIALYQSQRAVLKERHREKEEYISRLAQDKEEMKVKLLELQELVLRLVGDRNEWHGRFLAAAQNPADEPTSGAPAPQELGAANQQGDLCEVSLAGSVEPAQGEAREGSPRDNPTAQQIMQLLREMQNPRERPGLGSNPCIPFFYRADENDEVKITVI


Legend:
[1] = target: T1, HA-GM130 aa774–1,002 (human); test: co-IP; HEK293A lysates with EGFP-WAC FL or ΔCC mixed with lysates with HA-GM130 fragments, immunoprecipitated with anti-HA, immunoblot
3xHA-GM130 (human) = target: T2, 3xHA-GM130 (human); test: co-IP; HEK293A cells co-transfected with 3xHA-GM130 and EGFP-WAC constructs, immunoprecipitated with anti-HA, immunoblot

binding [1] | binding (3xHA-GM130 (human)) | Binder
no binding | – | EGFP-WAC aa1–610 (ΔCC) (domain or fragment, UniProt Q9BTA9 1-610) MVMYARKQQRLSDGCHDRRGDSQPYQALKYSSKSHPSSGDHRHEKMRDAGDPSPPNKMLRRSDSPENKYSDSTGHSKAKNVHTHRVRERDGGTSYSPQENSHNHSALHSSNSHSSNPSNNPSKTSDAPYDSADDWSEHISSSGKKYYYNCRTEVSQWEKPKEWLEREQRQKEANKMAVNSFPKDRDYRREVMQATATSGFASGMEDKHSSDASSLLPQNILSQTSRHNDRDYRLPRAETHSSSTPVQHPIKPVVHPTATPSTVPSSPFTLQSDHQPKKSFDANGASTLSKLPTPTSSVPAQKTERKESTSGDKPVSHSCTTPSTSSASGLNPTSAPPTSASAVPVSPVPQSPIPPLLQDPNLLRQLLPALQATLQLNNSNVDISKINEVLTAAVTQASLQSIIHKFLTAGPSAFNITSLISQAAQLSTQAQPSNQSPMSLTSDASSPRSYVSPRISTPQTNTVPIKPLISTPPVSSQPKVSTPVVKQGPVSQSATQQPVTADKQQGHEPVSPRSLQRSSSQRSPSPGPNHTSNSSNASNATVVPQNSSARSTCSLTPALAAHFSENLIKHVQGWPADHAEKQASRLREEAHNMGTIHMSEICTELKNLRS
binds | binds | GST-WAC FL (natural protein, human, UniProt Q9BTA9 1-647, looked up, human WAC isoform 1, full length; also called recombinant GST-WAC; source: recombinant) MVMYARKQQRLSDGCHDRRGDSQPYQALKYSSKSHPSSGDHRHEKMRDAGDPSPPNKMLRRSDSPENKYSDSTGHSKAKNVHTHRVRERDGGTSYSPQENSHNHSALHSSNSHSSNPSNNPSKTSDAPYDSADDWSEHISSSGKKYYYNCRTEVSQWEKPKEWLEREQRQKEANKMAVNSFPKDRDYRREVMQATATSGFASGMEDKHSSDASSLLPQNILSQTSRHNDRDYRLPRAETHSSSTPVQHPIKPVVHPTATPSTVPSSPFTLQSDHQPKKSFDANGASTLSKLPTPTSSVPAQKTERKESTSGDKPVSHSCTTPSTSSASGLNPTSAPPTSASAVPVSPVPQSPIPPLLQDPNLLRQLLPALQATLQLNNSNVDISKINEVLTAAVTQASLQSIIHKFLTAGPSAFNITSLISQAAQLSTQAQPSNQSPMSLTSDASSPRSYVSPRISTPQTNTVPIKPLISTPPVSSQPKVSTPVVKQGPVSQSATQQPVTADKQQGHEPVSPRSLQRSSSQRSPSPGPNHTSNSSNASNATVVPQNSSARSTCSLTPALAAHFSENLIKHVQGWPADHAEKQASRLREEAHNMGTIHMSEICTELKNLRSLVRVCEIQATLREQRILFLRQQIKELEKLKNQNSFMV
